Data as given in the supplement of paper PMC10849652.
The list shows a part of the results.

Chains of the proteins cited; added tags and fusions are not shown. Lines headed by an entry give the natural chain unless they say otherwise; changes in a name come on top.
UniProt Q9NZJ6: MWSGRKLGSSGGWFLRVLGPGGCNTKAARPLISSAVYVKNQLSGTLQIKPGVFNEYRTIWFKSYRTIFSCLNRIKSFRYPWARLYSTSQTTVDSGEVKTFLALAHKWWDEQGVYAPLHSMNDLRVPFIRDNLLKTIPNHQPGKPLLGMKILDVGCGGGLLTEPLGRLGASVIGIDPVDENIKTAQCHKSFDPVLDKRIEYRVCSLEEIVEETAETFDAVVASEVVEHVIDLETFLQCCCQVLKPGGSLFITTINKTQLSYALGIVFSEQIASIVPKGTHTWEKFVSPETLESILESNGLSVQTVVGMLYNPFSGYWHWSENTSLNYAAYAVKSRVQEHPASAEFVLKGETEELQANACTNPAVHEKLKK
UniProt P14406, whole entry, looked up: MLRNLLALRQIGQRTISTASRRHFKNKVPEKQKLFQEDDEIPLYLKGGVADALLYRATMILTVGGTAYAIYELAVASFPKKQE
UniProt Q7Z5Q1: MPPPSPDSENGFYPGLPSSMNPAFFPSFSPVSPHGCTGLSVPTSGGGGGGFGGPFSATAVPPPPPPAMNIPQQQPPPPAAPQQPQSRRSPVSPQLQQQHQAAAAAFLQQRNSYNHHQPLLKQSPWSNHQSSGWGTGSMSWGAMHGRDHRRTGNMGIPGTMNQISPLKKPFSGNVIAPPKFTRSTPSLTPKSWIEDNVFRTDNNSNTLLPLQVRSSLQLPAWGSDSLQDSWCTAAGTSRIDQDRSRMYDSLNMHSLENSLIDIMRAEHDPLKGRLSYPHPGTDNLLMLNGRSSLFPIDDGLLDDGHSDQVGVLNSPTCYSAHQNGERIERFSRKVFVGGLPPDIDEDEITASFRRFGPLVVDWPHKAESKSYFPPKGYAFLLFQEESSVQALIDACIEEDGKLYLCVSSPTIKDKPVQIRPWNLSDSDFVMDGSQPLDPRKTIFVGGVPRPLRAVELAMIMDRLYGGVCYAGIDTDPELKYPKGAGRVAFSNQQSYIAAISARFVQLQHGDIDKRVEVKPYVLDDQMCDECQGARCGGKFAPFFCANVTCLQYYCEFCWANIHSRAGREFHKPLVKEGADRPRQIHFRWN
UniProt P68400, whole entry, looked up: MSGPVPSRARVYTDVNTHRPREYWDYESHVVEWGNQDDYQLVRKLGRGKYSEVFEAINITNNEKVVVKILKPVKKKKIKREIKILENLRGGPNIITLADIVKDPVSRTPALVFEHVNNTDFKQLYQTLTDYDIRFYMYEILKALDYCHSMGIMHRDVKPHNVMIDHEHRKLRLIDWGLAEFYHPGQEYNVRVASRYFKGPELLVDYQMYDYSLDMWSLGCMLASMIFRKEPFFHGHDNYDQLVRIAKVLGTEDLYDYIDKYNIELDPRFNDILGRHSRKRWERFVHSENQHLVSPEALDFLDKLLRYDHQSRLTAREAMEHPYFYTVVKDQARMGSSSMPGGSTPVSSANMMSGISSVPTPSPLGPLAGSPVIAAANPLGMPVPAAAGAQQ
UniProt Q5HYK3: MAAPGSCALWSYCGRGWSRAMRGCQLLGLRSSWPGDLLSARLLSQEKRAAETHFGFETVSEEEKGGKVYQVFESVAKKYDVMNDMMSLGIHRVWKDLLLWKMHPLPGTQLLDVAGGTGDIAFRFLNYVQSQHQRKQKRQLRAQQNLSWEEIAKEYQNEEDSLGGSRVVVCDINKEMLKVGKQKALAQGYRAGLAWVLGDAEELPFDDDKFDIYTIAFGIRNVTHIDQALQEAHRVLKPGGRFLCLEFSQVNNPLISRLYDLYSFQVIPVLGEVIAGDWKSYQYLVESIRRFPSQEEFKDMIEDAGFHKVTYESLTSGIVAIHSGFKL
UniProt Q8N8Q8: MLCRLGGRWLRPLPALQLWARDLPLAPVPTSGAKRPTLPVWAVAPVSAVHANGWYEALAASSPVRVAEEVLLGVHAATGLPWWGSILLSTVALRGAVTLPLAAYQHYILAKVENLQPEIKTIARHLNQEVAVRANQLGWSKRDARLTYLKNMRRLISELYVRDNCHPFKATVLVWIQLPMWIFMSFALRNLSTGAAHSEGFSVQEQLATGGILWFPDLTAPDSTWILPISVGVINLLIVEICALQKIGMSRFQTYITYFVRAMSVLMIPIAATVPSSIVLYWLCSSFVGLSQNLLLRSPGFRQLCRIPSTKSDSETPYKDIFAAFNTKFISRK
UniProt Q9BR76, whole entry, looked up: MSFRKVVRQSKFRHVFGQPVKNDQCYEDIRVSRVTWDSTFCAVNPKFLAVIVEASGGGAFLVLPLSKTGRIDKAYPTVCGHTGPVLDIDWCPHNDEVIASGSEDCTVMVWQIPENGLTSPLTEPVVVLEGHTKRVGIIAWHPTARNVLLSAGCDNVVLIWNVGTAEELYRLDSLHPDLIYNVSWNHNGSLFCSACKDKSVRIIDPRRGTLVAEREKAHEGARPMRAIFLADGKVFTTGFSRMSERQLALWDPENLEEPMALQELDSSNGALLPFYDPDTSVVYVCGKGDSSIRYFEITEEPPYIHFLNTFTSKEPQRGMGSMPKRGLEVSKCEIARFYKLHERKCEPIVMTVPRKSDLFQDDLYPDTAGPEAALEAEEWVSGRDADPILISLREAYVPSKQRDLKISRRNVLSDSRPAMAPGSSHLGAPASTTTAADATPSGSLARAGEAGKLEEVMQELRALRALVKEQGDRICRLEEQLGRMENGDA
UniProt Q86VU5: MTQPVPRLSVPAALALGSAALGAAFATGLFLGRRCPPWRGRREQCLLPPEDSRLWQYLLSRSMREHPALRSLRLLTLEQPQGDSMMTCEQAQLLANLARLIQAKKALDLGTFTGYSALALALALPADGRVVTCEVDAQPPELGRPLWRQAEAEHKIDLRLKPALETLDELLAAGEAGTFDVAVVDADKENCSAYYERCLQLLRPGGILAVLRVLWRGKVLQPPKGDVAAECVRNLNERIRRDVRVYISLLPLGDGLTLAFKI
UniProt O75390: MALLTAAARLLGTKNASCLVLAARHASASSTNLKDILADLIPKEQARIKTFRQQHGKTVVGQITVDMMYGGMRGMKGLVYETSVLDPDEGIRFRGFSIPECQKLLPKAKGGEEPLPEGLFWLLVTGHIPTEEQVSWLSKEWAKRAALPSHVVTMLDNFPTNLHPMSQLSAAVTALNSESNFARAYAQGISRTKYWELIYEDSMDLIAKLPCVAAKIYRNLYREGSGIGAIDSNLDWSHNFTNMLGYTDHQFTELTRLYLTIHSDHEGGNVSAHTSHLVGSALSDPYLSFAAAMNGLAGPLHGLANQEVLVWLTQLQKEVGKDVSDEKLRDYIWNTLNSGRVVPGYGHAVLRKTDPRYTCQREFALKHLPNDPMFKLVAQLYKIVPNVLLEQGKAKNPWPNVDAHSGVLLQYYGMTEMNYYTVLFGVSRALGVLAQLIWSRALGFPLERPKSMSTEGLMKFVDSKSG
UniProt O14548: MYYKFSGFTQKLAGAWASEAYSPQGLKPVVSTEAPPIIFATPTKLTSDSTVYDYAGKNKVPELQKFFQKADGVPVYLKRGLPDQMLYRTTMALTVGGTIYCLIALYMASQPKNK
UniProt P49747: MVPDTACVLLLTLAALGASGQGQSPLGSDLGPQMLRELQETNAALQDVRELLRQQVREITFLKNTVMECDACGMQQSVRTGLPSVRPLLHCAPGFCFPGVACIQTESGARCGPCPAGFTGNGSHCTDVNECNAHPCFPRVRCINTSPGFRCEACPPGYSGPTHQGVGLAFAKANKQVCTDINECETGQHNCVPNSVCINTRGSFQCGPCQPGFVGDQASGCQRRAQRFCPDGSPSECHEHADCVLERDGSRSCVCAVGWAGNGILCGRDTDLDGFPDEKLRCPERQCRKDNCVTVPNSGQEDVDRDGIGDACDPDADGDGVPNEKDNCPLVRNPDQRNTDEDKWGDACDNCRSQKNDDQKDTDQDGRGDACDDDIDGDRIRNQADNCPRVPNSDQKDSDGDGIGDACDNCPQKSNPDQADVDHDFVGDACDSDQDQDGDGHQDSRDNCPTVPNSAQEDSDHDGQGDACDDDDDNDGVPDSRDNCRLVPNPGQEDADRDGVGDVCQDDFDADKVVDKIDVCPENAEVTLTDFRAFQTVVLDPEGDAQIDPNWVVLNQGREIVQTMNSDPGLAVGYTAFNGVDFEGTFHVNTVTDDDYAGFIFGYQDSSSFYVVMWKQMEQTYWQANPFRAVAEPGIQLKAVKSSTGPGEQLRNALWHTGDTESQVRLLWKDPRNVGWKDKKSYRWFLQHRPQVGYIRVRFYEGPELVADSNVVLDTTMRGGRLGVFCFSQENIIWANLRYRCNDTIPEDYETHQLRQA
UniProt P48729: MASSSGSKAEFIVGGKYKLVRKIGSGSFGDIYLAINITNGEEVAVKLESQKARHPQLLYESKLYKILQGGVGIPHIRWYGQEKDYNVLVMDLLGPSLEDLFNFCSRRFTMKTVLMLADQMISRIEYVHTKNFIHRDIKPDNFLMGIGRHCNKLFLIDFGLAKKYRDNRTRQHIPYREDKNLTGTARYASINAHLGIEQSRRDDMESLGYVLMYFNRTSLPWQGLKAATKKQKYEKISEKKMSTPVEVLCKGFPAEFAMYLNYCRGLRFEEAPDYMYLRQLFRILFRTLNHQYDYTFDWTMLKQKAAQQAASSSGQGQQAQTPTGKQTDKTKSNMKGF
UniProt Q9UKF6: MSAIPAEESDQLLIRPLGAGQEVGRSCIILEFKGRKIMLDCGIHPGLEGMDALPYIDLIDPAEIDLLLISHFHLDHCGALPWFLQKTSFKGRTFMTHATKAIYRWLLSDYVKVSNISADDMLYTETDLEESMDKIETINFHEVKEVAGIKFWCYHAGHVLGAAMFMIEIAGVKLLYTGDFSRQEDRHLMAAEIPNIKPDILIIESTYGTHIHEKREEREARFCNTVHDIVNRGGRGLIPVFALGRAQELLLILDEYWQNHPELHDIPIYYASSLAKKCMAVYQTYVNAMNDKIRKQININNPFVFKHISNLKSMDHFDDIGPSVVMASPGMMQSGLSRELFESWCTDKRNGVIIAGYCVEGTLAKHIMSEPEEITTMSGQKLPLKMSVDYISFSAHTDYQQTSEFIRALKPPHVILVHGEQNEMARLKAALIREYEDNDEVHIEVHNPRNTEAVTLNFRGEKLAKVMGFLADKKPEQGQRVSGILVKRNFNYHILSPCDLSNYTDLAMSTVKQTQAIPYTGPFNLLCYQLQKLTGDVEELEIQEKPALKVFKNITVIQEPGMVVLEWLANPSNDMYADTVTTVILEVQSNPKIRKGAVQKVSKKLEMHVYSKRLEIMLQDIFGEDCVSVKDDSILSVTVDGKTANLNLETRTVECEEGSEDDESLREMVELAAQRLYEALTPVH
UniProt P55060: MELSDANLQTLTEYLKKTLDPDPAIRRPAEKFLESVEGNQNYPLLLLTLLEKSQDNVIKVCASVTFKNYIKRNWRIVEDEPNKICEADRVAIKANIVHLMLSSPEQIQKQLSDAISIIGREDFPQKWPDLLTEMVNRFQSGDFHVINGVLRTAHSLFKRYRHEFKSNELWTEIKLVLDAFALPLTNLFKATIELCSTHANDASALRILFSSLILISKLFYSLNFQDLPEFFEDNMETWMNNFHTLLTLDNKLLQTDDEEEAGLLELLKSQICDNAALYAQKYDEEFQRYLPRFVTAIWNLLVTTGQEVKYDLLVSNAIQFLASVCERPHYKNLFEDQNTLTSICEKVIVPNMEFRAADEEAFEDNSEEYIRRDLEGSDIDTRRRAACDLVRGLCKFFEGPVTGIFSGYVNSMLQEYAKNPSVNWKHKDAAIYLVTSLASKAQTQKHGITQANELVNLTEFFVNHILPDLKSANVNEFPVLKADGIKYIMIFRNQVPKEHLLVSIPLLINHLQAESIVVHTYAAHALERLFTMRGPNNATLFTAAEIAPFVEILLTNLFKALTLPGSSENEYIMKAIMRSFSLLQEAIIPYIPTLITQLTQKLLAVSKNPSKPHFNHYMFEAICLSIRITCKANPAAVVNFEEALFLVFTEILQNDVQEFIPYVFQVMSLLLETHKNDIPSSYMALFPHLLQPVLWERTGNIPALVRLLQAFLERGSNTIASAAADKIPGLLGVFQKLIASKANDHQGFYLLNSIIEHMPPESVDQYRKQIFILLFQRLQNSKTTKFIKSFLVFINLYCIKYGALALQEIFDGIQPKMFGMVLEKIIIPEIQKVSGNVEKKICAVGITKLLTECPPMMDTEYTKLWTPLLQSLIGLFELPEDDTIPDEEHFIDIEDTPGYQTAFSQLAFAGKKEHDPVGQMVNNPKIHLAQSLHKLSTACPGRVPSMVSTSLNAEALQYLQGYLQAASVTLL
UniProt P20674, whole entry, looked up: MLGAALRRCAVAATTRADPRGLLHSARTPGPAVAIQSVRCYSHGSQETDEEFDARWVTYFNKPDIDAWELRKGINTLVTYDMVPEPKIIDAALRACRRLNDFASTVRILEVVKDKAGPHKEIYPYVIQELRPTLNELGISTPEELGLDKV

Key:
Assay in all cases: log2 fold change, soluble protein after heating vs DMSO (PISA); higher = thermal stabilisation; K562 cells, 10 uM, 30 min; active = over 0.2 and 3.5 SD of the protein, either way, in both replicates (recomputed)
saracatinib = compound: CN1CCN(CCOc2cc(OC3CCOCC3)c3c(Nc4c(Cl)ccc5c4OCO5)ncnc3c2)CC1 [saracatinib]
Summary of the method: (§1)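 K562 cells (2×10^6 cells/mL) were treated with 10 μM compound for 30 min, and aliquots were heated for 3 min over 48°C-58°C. Pooled aliquots were extracted in PBS with 0.5% NP-40 at 4°C, and the supernatant after 21,000xg for 90 min was measured by TMTpro 16plex LC-MS/MS with channel sums equalised. Reported thermal stability, relative to control samples and from duplicates, is a log2 fold change.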

sotrastaurin = compound: CN1CCN(c2nc(C3=C(c4c[nH]c5ccccc45)C(=O)NC3=O)c3ccccc3n2)CC1 [sotrastaurin]
Summary of the method: as §1

alvocidib = compound: CN1CC[C@H](c2c(O)cc(O)c3c(=O)cc(-c4ccccc4Cl)oc23)[C@H](O)C1 [alvocidib]
Summary of the method: as §1

Tubastatin A = compound: CN1CCc2c(c3ccccc3n2Cc2ccc(C(=O)NO)cc2)C1 [Tubastatin A]
Summary of the method: as §1

[1] = compound: CNC(=O)C1=CC=CC=C1NC2=NC(=NC=C2Cl)NC3=C(C=C(C=C3)N4CCOCC4)OC
Summary of the method: as §1

defactinib = compound: CNC(=O)c1ccc(Nc2ncc(C(F)(F)F)c(NCc3nccnc3N(C)S(C)(=O)=O)n2)cc1 [defactinib]
Summary of the method: as §1

rucaparib = compound: CNCc1ccc(-c2[nH]c3cc(F)cc4c3c2CCNC4=O)cc1 [rucaparib]
Summary of the method: as §1

[2] = compound: CNc1nc(-c2ccc3c(N)n[nH]c3c2)cc(N2C[C@@H](C(=O)NC3CCCCC3)CC[C@H]2C)n1
Summary of the method: as §1

encorafenib = compound: COC(=O)N[C@@H](C)CNc1nccc(-c2cn(C(C)C)nc2-c2cc(Cl)cc(NS(C)(=O)=O)c2F)n1 [encorafenib]
Summary of the method: as §1

[3] = compound: COC(=O)[C@H](CCSC)NC(=O)C1=C(C=C(C=C1)NC[C@H](CS)N)C2=CC=CC=C2
Summary of the method: as §1

[4] = compound: COC1=CC=C(C=C1)CN2C=CC3=C2C=C(C=C3)C(=O)NO
Summary of the method: as §1

filanesib = compound: CON(C)C(=O)N1N=C(c2cc(F)ccc2F)S[C@@]1(CCCN)c1ccccc1 [filanesib]
Summary of the method: as §1

zotarolimus = compound: CO[C@H]1C[C@@H]2CC[C@@H](C)[C@@](O)(O2)C(=O)C(=O)N2CCCC[C@H]2C(=O)O[C@H]([C@H](C)C[C@@H]2CC[C@H](n3cnnn3)[C@H](OC)C2)CC(=O)[C@H](C)/C=C(\C)[C@@H](O)[C@@H](OC)C(=O)[C@H](C)C[C@H](C)/C=C/C=C/C=C/1C [zotarolimus]
Summary of the method: as §1

idasanutlin = compound: COc1cc(C(=O)O)ccc1NC(=O)[C@@H]1N[C@@H](CC(C)(C)C)[C@](C#N)(c2ccc(Cl)cc2F)[C@H]1c1cccc(Cl)c1F [idasanutlin]
Summary of the method: as §1

alisertib = compound: COc1cc(Nc2ncc3c(n2)-c2ccc(Cl)cc2C(c2c(F)cccc2OC)=NC3)ccc1C(=O)O [alisertib]
Summary of the method: as §1

[5] = compound: COc1cc2nc(-c3cc(F)ccc3O)nc(N[C@@H]3CNC[C@H]3C(C)(C)O)c2cc1OC
Summary of the method: as §1

gefitinib = compound: COc1cc2ncnc(Nc3ccc(F)c(Cl)c3)c2cc1OCCCN1CCOCC1 [gefitinib]
Summary of the method: as §1

[6] = compound: COc1cccc2cc(-c3nc([C@H]4CC[C@H](C(=O)O)CC4)n4ncnc(N)c34)[nH]c12
Summary of the method: as §1

lapatinib = compound: CS(=O)(=O)CCNCc1ccc(-c2ccc3ncnc(Nc4ccc(OCc5cccc(F)c5)c(Cl)c4)c3c2)o1 [lapatinib]
Summary of the method: as §1

pictilisib = compound: CS(=O)(=O)N1CCN(Cc2cc3nc(-c4cccc5[nH]ncc45)nc(N4CCOCC4)c3s2)CC1 [pictilisib]
Summary of the method: as §1

Target | log2 fold change (saracatinib) | log2 fold change (sotrastaurin) | log2 fold change (alvocidib) | log2 fold change (Tubastatin A) | log2 fold change [1] | log2 fold change (defactinib) | log2 fold change (rucaparib) | log2 fold change [2] | log2 fold change (encorafenib) | log2 fold change [3] | log2 fold change [4] | log2 fold change (filanesib) | log2 fold change (zotarolimus) | log2 fold change (idasanutlin) | log2 fold change (alisertib) | log2 fold change [5] | log2 fold change (gefitinib) | log2 fold change [6] | log2 fold change (lapatinib) | log2 fold change (pictilisib)
COQ3 (UniProt Q9NZJ6) | inactive: -0.006 | inactive: 0.111 | inactive: -0.063 | inactive: -0.117 | inactive: 0.045 | inactive: 0.017 | inactive: -0.062 | inactive: 0.036 | inactive: -0.032 | inactive: -0.021 | inactive: -0.008 | inactive: -0.184 | inactive: -0.017 | inactive: -0.055 | inactive: -0.062 | inactive: -0.03 | inactive: 0.042 | inactive: 0.066 | inactive: 0.053 | inactive: 0.026
CREM isoform 1 (UniProt Q03060) | inactive: 0.067 | inactive: -0.013 | inactive: 0.146 | inactive: -0.121 | inactive: 0.005 | inactive: -0.032 | inactive: -0.068 | inactive: -0.057 | inactive: -0.025 | inactive: 0.014 | – | inactive: -0.025 | inactive: -0.101 | inactive: -0.016 | inactive: -0.056 | inactive: 0.079 | inactive: -0.022 | inactive: 0.062 | inactive: -0.01 | inactive: 0.203
COX7A2 (UniProt P14406) | inactive: -0.002 | inactive: 0.057 | inactive: 0 | inactive: 0.009 | inactive: 0.029 | inactive: 0 | inactive: -0.028 | inactive: -0.084 | inactive: -0.061 | inactive: 0.13 | inactive: -0.114 | inactive: 0.008 | inactive: -0.011 | inactive: -0.028 | inactive: -0.228 | inactive: -0.049 | inactive: 0.034 | inactive: 0.061 | inactive: -0.083 | inactive: -0.014
CPEB2 isoform 9 (UniProt Q7Z5Q1) | inactive: -0.057 | inactive: 0.085 | inactive: -0.01 | inactive: -0.075 | inactive: -0.186 | inactive: -0.009 | – | inactive: 0.03 | – | inactive: -0.262 | inactive: 0 | inactive: 0.017 | inactive: -0.174 | inactive: 0.209 | – | inactive: -0.064 | – | – | inactive: 0.058 | –
CSNK2A1 (UniProt P68400) | inactive: 0.016 | inactive: 0.059 | – | inactive: -0.019 | active: 0.263 | inactive: -0.113 | inactive: -0.079 | inactive: -0.045 | inactive: -0.038 | inactive: -0.034 | inactive: -0.025 | inactive: 0.03 | inactive: -0.015 | inactive: -0.009 | inactive: -0.073 | inactive: -0.167 | inactive: -0.023 | inactive: 0.066 | inactive: 0.032 | inactive: 0.102
COQ5 (UniProt Q5HYK3) | inactive: -0.031 | inactive: 0.107 | inactive: -0.027 | inactive: 0.005 | inactive: 0.045 | inactive: -0.005 | inactive: -0.044 | inactive: -0.035 | inactive: -0.069 | inactive: 0.032 | inactive: 0.076 | inactive: -0.061 | inactive: -0.011 | inactive: 0.018 | inactive: 0.112 | inactive: 0.02 | inactive: 0.045 | inactive: 0.106 | inactive: 0.037 | inactive: 0.123
COX18 (UniProt Q8N8Q8) | inactive: 0.075 | inactive: 0.032 | inactive: 0.011 | inactive: -0.005 | inactive: 0.034 | inactive: 0 | inactive: 0.018 | inactive: -0.013 | inactive: -0.013 | inactive: 0.008 | inactive: -0.024 | inactive: -0.066 | inactive: -0.026 | inactive: -0.002 | inactive: -0.04 | inactive: -0.04 | inactive: 0 | inactive: 0.052 | inactive: -0.051 | inactive: 0.066
CORO1B (UniProt Q9BR76) | inactive: 0.007 | inactive: -0.046 | inactive: -0.084 | inactive: 0.012 | inactive: 0.039 | inactive: -0.029 | inactive: -0.009 | inactive: 0.023 | inactive: 0.047 | inactive: -0.017 | inactive: 0.116 | inactive: 0 | inactive: 0.015 | inactive: -0.015 | inactive: -0.032 | inactive: 0.099 | inactive: 0.064 | inactive: -0.009 | inactive: -0.02 | inactive: 0.027
COMTD1 (UniProt Q86VU5) | inactive: -0.048 | inactive: 0.017 | inactive: -0.037 | inactive: -0.048 | inactive: -0.033 | inactive: -0.087 | inactive: 0.011 | inactive: 0.006 | inactive: 0.023 | inactive: -0.092 | inactive: -0.181 | inactive: -0.161 | inactive: 0.099 | inactive: -0.102 | inactive: 0.014 | inactive: 0.105 | inactive: 0.026 | inactive: 0.066 | inactive: -0.023 | inactive: 0.116
CS (UniProt O75390) | inactive: -0.001 | inactive: 0.02 | – | inactive: -0.015 | inactive: 0.011 | inactive: -0.069 | inactive: 0.022 | inactive: -0.055 | inactive: -0.042 | inactive: -0.002 | inactive: 0.012 | inactive: -0.172 | inactive: 0.011 | inactive: -0.033 | inactive: -0.013 | inactive: -0.139 | inactive: 0.041 | inactive: 0.059 | inactive: -0.027 | inactive: 0.099
COX7A2L (UniProt O14548) | inactive: 0.029 | inactive: 0.021 | inactive: 0.037 | inactive: -0.014 | inactive: 0.017 | inactive: 0.021 | inactive: -0.047 | inactive: -0.052 | inactive: -0.048 | inactive: -0.044 | inactive: -0.048 | inactive: -0.019 | inactive: -0.04 | inactive: 0.001 | inactive: -0.04 | inactive: -0.085 | inactive: 0.014 | inactive: 0.035 | inactive: -0.054 | inactive: -0.05
COMP (UniProt P49747) | inactive: 0.01 | inactive: 0.39 | inactive: 0.025 | inactive: -0.073 | inactive: 0.063 | – | inactive: -0.146 | inactive: -0.137 | inactive: -0.097 | – | inactive: -0.106 | inactive: 0.082 | inactive: -0.48 | inactive: 0.064 | inactive: 0.047 | inactive: -0.086 | – | inactive: 0.177 | inactive: 0.012 | inactive: -0.277
CRYM-AS1 (UniProt A6NIL9) | inactive: -0.092 | inactive: -0.041 | – | inactive: 0.119 | inactive: -0.347 | inactive: -0.065 | inactive: -0.356 | inactive: 0.103 | inactive: 0.024 | inactive: -0.078 | inactive: 0.159 | inactive: 0.047 | inactive: 0.146 | inactive: -0.364 | inactive: 0.037 | – | inactive: -0.16 | inactive: -0.041 | – | inactive: 0.109
CSNK1A1 (UniProt P48729) | inactive: -0.028 | inactive: 0.011 | – | inactive: 0.115 | – | inactive: 0.058 | inactive: 0.128 | inactive: 0.042 | inactive: 0.037 | inactive: -0.016 | inactive: 0.147 | inactive: 0.08 | inactive: 0.024 | inactive: 0.094 | – | inactive: -0.214 | inactive: -0.106 | inactive: -0.036 | inactive: 0.019 | inactive: 0.024
CPSF3 (UniProt Q9UKF6) | inactive: 0.009 | inactive: -0.086 | – | inactive: 0.04 | inactive: 0.07 | inactive: -0.098 | inactive: -0.011 | inactive: -0.049 | inactive: 0.03 | inactive: -0.009 | inactive: -0.063 | inactive: 0.033 | inactive: 0.011 | inactive: -0.007 | inactive: -0.067 | inactive: -0.021 | inactive: 0 | inactive: -0.012 | inactive: 0.009 | inactive: -0.025
CSE1L (UniProt P55060) | inactive: 0.032 | inactive: -0.076 | – | inactive: -0.033 | inactive: 0.016 | inactive: -0.092 | inactive: -0.059 | inactive: -0.057 | inactive: 0.022 | inactive: -0.013 | inactive: 0.024 | inactive: -0.1 | inactive: 0.027 | inactive: -0.135 | inactive: -0.059 | inactive: 0.005 | inactive: -0.018 | inactive: -0.019 | inactive: -0.036 | inactive: -0.015
COX5A (UniProt P20674) | inactive: -0.063 | inactive: 0.025 | – | inactive: -0.015 | inactive: 0.043 | inactive: -0.016 | inactive: 0.011 | inactive: 0.007 | inactive: -0.036 | inactive: 0.11 | inactive: -0.1 | inactive: 0.015 | inactive: 0.054 | inactive: -0.012 | inactive: -0.13 | inactive: -0.092 | inactive: 0.067 | inactive: 0.084 | inactive: -0.108 | inactive: 0.108

An excerpt of these results, as comma-separated lines:
Target,log2 fold change (saracatinib),log2 fold change (sotrastaurin),log2 fold change (alvocidib),log2 fold change (Tubastatin A),log2 fold change [1],log2 fold change (defactinib),log2 fold change (rucaparib),log2 fold change [2],log2 fold change (encorafenib),log2 fold change [3],log2 fold change [4],log2 fold change (filanesib),log2 fold change (zotarolimus),log2 fold change (idasanutlin),log2 fold change (alisertib),log2 fold change [5],log2 fold change (gefitinib),log2 fold change [6],log2 fold change (lapatinib),log2 fold change (pictilisib)
COX7A2 (UniProt P14406),inactive: -0.002,inactive: 0.057,inactive: 0,inactive: 0.009,inactive: 0.029,inactive: 0,inactive: -0.028,inactive: -0.084,inactive: -0.061,inactive: 0.13,inactive: -0.114,inactive: 0.008,inactive: -0.011,inactive: -0.028,inactive: -0.228,inactive: -0.049,inactive: 0.034,inactive: 0.061,inactive: -0.083,inactive: -0.014
CS (UniProt O75390),inactive: -0.001,inactive: 0.02,–,inactive: -0.015,inactive: 0.011,inactive: -0.069,inactive: 0.022,inactive: -0.055,inactive: -0.042,inactive: -0.002,inactive: 0.012,inactive: -0.172,inactive: 0.011,inactive: -0.033,inactive: -0.013,inactive: -0.139,inactive: 0.041,inactive: 0.059,inactive: -0.027,inactive: 0.099
